Results from publication doi:10.1101/2024.10.17.618965.

Protein sequences, listed by entry. Tags and fused reporters are not part of them. Lines headed by an entry give the natural chain unless they say otherwise; changes in a name come on top.
UniProt O95835: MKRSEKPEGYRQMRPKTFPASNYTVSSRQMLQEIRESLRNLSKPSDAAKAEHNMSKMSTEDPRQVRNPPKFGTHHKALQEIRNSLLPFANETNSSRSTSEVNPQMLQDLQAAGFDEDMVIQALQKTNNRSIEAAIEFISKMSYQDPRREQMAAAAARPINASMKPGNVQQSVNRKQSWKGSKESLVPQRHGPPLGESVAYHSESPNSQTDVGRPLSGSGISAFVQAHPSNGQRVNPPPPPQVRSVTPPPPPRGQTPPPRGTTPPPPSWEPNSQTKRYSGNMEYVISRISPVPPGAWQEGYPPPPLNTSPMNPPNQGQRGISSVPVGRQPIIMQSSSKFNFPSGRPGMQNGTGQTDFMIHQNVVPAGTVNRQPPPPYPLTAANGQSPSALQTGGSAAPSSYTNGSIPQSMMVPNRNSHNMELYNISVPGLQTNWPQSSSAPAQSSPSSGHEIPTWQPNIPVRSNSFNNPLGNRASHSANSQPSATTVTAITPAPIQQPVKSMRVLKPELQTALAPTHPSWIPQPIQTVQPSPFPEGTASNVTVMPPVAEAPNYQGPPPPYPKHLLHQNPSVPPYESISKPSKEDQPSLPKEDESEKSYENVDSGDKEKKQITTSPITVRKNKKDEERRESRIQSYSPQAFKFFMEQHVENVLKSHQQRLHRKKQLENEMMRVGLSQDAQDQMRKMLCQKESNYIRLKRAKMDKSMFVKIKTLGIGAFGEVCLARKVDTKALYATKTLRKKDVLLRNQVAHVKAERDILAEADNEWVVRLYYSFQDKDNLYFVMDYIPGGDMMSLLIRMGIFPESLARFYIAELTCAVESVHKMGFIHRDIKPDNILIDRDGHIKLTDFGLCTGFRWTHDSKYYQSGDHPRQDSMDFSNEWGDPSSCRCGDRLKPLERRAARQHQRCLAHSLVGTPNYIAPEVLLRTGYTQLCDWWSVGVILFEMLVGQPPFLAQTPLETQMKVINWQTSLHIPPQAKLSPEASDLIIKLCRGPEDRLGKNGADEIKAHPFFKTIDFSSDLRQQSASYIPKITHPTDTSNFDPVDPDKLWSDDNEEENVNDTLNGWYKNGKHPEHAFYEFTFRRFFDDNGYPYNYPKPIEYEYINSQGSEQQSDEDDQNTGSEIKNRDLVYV
UniProt Q9UDY2: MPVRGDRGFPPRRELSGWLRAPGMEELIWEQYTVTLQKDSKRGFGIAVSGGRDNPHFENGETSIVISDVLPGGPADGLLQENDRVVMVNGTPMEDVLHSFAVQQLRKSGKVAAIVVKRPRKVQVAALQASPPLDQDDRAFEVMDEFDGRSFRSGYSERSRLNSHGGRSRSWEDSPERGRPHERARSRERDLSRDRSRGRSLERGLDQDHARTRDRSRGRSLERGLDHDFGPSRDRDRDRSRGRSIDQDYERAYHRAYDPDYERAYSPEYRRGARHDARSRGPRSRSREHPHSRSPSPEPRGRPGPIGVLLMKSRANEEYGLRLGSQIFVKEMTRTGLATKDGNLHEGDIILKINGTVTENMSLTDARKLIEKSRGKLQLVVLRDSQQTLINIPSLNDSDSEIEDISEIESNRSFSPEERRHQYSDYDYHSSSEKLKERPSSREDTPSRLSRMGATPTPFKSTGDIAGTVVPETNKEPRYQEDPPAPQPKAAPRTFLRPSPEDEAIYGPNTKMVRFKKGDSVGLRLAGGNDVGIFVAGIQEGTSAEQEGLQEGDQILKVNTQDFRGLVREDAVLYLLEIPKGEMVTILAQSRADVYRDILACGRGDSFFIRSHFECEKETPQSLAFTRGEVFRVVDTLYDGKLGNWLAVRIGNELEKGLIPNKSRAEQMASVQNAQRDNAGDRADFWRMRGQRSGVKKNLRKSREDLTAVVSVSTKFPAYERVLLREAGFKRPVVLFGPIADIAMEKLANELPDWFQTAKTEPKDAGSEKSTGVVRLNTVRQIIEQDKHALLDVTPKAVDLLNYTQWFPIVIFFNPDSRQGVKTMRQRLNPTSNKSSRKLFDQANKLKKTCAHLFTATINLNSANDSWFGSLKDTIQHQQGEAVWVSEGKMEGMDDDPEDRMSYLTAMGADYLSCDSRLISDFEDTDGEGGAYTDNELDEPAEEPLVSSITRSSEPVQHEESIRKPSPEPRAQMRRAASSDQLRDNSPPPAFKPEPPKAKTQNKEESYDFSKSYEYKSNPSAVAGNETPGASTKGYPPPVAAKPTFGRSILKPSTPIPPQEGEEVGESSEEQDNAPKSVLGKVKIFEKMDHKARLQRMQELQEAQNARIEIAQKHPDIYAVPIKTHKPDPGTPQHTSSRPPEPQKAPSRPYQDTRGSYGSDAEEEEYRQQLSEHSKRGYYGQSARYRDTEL

What was measured:
Test in all cases: co-IP
[1] = biological target: FLAG-LATS1 P456A P459A (human) (UniProt O95835)
[2] = biological target: FLAG-LATS1 R3A K6A (human) (UniProt O95835)
[3] = biological target: FLAG-LATS1 P247A P250A (human) (UniProt O95835)

binding [1]: no binding | binding [2]: no binding | binding [3]: no binding
Substance: full-length HA-ZO-2 (human ZO-2 in pXJ40) (from UniProt Q9UDY2 1-1190)

These are yes or no findings as the source states them, for the method shown. In cells and extracts the contact can be indirect.
